According to the supplement of paper PMC10849652:
Some of the results follow.

By UniProt entry, the sequences of proteins in these tests, tags left out. Where a name states a change or a piece, a line headed by the entry shows the natural chain unless it says otherwise.
UniProt P31949: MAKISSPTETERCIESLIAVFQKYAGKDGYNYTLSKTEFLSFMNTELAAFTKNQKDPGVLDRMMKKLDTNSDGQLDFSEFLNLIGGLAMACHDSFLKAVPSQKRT
UniProt O15027: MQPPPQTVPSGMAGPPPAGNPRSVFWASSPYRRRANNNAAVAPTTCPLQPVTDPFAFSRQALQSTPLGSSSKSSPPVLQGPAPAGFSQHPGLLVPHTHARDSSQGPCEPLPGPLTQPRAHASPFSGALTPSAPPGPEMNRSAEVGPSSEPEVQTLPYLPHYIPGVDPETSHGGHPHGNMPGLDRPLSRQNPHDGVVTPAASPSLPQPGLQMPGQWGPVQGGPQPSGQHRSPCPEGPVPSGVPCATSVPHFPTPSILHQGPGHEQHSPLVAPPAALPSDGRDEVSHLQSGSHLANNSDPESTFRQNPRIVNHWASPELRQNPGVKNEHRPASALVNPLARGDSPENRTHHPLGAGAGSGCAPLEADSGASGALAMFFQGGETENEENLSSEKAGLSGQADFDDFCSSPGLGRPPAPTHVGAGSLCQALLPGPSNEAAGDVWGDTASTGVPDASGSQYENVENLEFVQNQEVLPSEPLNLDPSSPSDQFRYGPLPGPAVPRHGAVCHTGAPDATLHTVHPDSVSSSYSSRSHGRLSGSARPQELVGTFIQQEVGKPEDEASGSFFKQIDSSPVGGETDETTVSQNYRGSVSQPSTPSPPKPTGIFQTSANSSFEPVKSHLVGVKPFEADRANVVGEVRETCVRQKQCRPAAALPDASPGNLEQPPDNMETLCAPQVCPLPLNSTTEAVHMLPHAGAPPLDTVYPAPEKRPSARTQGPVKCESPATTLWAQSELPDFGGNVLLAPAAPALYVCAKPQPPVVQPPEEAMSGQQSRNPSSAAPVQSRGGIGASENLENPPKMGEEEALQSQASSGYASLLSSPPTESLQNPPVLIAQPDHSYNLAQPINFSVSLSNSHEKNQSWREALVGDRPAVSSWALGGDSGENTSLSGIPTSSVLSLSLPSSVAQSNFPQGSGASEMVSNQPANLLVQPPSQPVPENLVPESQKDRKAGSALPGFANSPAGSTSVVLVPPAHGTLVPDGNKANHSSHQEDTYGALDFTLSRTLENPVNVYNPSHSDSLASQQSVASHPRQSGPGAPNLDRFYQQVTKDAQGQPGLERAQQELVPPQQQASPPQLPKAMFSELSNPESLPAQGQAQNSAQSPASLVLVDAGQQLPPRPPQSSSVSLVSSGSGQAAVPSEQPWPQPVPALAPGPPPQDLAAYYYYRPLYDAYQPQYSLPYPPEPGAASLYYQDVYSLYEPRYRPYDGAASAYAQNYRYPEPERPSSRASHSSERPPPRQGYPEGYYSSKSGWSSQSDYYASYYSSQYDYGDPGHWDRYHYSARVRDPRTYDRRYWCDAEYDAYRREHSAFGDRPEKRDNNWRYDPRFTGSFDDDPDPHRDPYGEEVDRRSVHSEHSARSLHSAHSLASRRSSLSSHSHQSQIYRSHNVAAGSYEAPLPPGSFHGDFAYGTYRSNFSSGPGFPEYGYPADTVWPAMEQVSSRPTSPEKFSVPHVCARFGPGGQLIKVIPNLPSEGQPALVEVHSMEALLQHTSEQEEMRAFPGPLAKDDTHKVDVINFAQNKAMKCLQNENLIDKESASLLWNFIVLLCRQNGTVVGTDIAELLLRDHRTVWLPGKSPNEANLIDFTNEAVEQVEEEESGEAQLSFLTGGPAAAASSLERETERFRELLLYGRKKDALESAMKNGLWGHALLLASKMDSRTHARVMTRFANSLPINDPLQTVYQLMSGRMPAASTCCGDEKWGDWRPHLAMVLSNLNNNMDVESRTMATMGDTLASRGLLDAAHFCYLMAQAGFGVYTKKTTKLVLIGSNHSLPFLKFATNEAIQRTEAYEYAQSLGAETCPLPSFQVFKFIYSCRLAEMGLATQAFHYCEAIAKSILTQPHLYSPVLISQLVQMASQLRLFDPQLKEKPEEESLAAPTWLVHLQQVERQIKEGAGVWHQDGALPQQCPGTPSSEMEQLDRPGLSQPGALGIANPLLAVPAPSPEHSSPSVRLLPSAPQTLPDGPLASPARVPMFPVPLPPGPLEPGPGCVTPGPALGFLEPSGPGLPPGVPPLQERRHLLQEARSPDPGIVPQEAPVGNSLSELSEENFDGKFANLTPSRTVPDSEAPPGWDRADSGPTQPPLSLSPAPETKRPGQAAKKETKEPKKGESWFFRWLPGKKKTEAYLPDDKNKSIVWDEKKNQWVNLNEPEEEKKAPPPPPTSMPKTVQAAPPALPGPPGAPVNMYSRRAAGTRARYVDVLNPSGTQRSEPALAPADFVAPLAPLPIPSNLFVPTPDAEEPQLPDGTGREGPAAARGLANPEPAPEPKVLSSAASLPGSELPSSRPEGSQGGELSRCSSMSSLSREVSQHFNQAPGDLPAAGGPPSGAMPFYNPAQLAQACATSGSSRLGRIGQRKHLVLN
UniProt Q7L099: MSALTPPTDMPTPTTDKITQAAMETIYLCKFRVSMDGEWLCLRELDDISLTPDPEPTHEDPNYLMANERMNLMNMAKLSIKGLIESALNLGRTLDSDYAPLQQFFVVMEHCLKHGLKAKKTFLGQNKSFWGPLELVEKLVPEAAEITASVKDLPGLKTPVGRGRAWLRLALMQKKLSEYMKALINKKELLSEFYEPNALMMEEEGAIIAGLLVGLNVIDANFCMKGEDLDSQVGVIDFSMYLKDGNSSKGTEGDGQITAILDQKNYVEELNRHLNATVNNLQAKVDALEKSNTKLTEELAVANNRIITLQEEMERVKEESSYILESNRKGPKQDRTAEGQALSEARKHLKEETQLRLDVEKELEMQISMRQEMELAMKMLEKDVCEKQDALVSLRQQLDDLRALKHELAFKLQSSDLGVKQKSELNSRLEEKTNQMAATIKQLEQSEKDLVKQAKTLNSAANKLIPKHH
UniProt Q9H446: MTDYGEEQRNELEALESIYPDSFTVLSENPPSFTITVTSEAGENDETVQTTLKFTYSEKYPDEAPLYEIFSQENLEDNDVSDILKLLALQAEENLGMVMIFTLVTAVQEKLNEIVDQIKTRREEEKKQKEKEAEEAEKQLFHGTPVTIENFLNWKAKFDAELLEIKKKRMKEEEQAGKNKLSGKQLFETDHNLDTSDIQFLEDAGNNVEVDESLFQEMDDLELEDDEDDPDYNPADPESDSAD
UniProt Q96FV2: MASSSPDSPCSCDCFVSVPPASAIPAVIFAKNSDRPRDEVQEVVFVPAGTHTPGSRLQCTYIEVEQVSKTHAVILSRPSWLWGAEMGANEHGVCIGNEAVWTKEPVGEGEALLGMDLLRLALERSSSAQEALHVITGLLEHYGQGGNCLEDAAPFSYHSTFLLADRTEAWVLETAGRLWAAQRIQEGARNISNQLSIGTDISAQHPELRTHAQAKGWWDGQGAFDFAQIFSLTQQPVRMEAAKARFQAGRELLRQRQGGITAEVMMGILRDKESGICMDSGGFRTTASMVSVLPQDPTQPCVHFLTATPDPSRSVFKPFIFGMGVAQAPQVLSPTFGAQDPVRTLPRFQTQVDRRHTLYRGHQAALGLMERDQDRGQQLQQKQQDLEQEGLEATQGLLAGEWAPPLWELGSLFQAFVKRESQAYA
UniProt P31040: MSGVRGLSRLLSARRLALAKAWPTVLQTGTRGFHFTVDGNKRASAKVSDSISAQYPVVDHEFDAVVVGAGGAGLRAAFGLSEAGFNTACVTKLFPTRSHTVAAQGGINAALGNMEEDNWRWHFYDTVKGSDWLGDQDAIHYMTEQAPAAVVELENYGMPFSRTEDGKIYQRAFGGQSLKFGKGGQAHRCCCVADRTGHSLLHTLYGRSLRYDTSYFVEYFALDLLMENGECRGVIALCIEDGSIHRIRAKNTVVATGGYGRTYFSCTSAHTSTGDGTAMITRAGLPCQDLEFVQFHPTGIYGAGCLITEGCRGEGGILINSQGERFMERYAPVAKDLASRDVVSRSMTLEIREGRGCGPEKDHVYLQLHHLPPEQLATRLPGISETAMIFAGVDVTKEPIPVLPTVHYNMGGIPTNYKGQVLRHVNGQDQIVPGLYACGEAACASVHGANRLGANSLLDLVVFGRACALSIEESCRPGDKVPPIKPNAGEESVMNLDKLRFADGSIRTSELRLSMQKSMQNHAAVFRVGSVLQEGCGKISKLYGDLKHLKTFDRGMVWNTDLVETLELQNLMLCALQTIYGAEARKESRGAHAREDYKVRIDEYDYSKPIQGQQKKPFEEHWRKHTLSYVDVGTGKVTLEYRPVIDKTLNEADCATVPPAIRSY
UniProt P21912: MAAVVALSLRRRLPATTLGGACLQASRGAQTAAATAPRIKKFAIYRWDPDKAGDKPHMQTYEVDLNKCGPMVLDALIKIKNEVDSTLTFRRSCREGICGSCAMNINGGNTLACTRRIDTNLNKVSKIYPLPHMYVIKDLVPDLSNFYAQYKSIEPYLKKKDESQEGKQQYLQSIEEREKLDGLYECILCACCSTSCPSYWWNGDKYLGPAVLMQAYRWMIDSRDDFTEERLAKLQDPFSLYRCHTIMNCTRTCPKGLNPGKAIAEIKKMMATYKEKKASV
UniProt O75446: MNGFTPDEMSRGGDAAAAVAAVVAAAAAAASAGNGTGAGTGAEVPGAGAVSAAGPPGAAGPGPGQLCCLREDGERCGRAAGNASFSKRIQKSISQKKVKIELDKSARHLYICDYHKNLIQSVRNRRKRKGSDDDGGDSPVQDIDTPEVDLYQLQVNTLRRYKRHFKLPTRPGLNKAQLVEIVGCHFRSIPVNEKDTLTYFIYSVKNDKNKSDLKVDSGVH
UniProt P82979: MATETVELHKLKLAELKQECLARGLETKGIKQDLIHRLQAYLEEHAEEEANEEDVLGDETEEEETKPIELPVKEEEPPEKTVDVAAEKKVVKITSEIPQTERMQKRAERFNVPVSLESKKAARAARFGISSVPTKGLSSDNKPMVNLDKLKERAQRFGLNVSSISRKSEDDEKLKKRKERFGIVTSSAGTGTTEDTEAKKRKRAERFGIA
UniProt O00442: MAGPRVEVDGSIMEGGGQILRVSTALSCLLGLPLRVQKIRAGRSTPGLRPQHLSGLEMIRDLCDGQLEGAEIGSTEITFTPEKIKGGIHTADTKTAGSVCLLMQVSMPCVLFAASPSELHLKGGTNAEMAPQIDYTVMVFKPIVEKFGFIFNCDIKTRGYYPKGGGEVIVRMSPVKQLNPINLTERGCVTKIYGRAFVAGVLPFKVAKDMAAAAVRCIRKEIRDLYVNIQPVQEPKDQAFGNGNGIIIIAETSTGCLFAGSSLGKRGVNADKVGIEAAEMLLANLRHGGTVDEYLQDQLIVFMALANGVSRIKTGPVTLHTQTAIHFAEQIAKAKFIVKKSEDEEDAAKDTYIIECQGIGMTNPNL
UniProt Q9UHR5: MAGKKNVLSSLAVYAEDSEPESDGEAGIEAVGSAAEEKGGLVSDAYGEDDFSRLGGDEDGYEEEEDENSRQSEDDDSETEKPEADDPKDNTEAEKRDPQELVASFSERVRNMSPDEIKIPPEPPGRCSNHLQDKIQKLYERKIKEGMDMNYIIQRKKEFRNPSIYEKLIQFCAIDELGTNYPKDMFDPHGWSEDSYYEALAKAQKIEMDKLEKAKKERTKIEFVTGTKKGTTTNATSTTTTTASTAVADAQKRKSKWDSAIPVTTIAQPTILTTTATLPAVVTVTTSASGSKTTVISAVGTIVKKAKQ
UniProt Q8N488: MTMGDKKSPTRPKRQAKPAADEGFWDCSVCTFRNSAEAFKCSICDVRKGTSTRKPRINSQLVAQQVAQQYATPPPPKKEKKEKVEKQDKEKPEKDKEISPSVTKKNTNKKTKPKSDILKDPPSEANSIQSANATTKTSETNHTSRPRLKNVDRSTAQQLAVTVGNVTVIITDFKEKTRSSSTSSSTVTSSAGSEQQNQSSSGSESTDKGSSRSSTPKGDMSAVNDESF
UniProt Q9BY42: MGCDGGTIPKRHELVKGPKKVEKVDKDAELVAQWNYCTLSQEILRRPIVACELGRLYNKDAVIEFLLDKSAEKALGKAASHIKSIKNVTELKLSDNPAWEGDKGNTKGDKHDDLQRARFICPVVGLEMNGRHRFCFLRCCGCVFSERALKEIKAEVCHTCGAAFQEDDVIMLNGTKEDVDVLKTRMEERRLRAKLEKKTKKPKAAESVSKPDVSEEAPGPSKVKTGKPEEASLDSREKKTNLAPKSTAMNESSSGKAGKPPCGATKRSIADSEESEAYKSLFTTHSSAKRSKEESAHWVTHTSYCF
UniProt Q9BY50: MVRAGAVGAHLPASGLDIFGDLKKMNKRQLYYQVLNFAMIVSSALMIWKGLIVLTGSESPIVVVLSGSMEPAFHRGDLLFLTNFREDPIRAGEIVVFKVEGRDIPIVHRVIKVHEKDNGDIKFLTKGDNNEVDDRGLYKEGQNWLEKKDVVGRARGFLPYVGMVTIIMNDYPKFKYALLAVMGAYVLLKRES
UniProt Q9NX18: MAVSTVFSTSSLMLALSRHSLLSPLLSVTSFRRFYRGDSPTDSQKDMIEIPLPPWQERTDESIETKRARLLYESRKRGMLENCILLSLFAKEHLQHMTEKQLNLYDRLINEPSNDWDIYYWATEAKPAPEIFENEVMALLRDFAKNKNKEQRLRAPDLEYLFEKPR

What was measured:
Assay in all cases: log2 fold change, soluble protein after heating vs DMSO (PISA); higher = thermal stabilisation; K562 cells, 10 uM, 30 min; active = over 0.2 and 3.5 SD of the protein, either way, in both replicates (recomputed)
[1] = compound: COC1=CC=C(C=C1)CN2C=CC3=C2C=C(C=C3)C(=O)NO
Summary of the method: (§1)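 Thermal stability values are relative to control samples and come from duplicates. They are expressed as log2 fold changes. For measurement, K562 cells (2×10^6 cells/mL) received 10 μM compound for 30 min, and aliquots were heated for 3 min over 48°C-58°C, pooled, and extracted at 4°C in PBS with 0.5% NP-40. Soluble protein, the supernatant after 21,000xg for 90 min, was quantified by TMTpro 16plex LC-MS/MS with equalised channel sums.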

filanesib = compound: CON(C)C(=O)N1N=C(c2cc(F)ccc2F)S[C@@]1(CCCN)c1ccccc1 [filanesib]
Summary of the method: as §1

zotarolimus = compound: CO[C@H]1C[C@@H]2CC[C@@H](C)[C@@](O)(O2)C(=O)C(=O)N2CCCC[C@H]2C(=O)O[C@H]([C@H](C)C[C@@H]2CC[C@H](n3cnnn3)[C@H](OC)C2)CC(=O)[C@H](C)/C=C(\C)[C@@H](O)[C@@H](OC)C(=O)[C@H](C)C[C@H](C)/C=C/C=C/C=C/1C [zotarolimus]
Summary of the method: as §1

idasanutlin = compound: COc1cc(C(=O)O)ccc1NC(=O)[C@@H]1N[C@@H](CC(C)(C)C)[C@](C#N)(c2ccc(Cl)cc2F)[C@H]1c1cccc(Cl)c1F [idasanutlin]
Summary of the method: as §1

alisertib = compound: COc1cc(Nc2ncc3c(n2)-c2ccc(Cl)cc2C(c2c(F)cccc2OC)=NC3)ccc1C(=O)O [alisertib]
Summary of the method: as §1

[2] = compound: COc1cc2nc(-c3cc(F)ccc3O)nc(N[C@@H]3CNC[C@H]3C(C)(C)O)c2cc1OC
Summary of the method: as §1

gefitinib = compound: COc1cc2ncnc(Nc3ccc(F)c(Cl)c3)c2cc1OCCCN1CCOCC1 [gefitinib]
Summary of the method: as §1

[3] = compound: COc1cccc2cc(-c3nc([C@H]4CC[C@H](C(=O)O)CC4)n4ncnc(N)c34)[nH]c12
Summary of the method: as §1

lapatinib = compound: CS(=O)(=O)CCNCc1ccc(-c2ccc3ncnc(Nc4ccc(OCc5cccc(F)c5)c(Cl)c4)c3c2)o1 [lapatinib]
Summary of the method: as §1

pictilisib = compound: CS(=O)(=O)N1CCN(Cc2cc3nc(-c4cccc5[nH]ncc45)nc(N4CCOCC4)c3s2)CC1 [pictilisib]
Summary of the method: as §1

Measured: log2 fold change

S100A11 (UniProt P31949)
inactive: [1] 0.057 | filanesib -0.026 | zotarolimus 0.043 | idasanutlin -0.028 | alisertib -0.056 | [2] -0.049 | gefitinib 0.02 | [3] 0.065 | lapatinib 0.025 | pictilisib 0

SACS (UniProt Q9NZJ4)
inactive: [1] -0.005 | filanesib -0.051 | zotarolimus 0.028 | idasanutlin 0.085 | alisertib -0.11 | [2] 0.174 | gefitinib -0.014 | [3] 0.071 | lapatinib -0.035 | pictilisib 0.027

SCAMP2 (UniProt H3BUB6)
inactive: [1] -0.27 | filanesib 0.126 | zotarolimus -0.217 | idasanutlin 0.134 | alisertib -0.019 | [2] 0.319 | gefitinib 0.003 | [3] 0.188 | lapatinib -0.329

SBNO1 (UniProt A3KN83)
inactive: [1] 0.033 | filanesib -0.025 | zotarolimus 0.012 | idasanutlin -0.011 | alisertib -0.031 | [2] 0.083 | gefitinib -0.001 | [3] -0.026 | lapatinib 0.015 | pictilisib 0.036

RUFY1 (UniProt Q96T51)
inactive: [1] -0.015 | filanesib 0.005 | zotarolimus 0.056 | idasanutlin -0.049 | alisertib 0.047 | [2] 0.02 | gefitinib -0.004 | [3] -0.053 | lapatinib -0.035 | pictilisib -0.009

RTCB (UniProt Q9Y3I0)
inactive: [1] -0.063 | filanesib 0.042 | zotarolimus 0.006 | idasanutlin 0.032 | alisertib -0.023 | [2] -0.03 | gefitinib -0.005 | [3] -0.047 | lapatinib 0.061 | pictilisib 0.008

RRP9 (UniProt O43818)
inactive: [1] -0.011 | filanesib 0.143 | zotarolimus -0.059 | idasanutlin 0.171 | alisertib -0.14 | [2] -0.061 | gefitinib 0.027 | [3] 0.047 | lapatinib 0.037 | pictilisib -0.04

SCIN (UniProt Q9Y6U3)
inactive: [1] 0.002 | filanesib 0.027 | zotarolimus 0.021 | idasanutlin 0.011 | alisertib -0.121 | [2] -0.038 | gefitinib -0.149 | [3] -0.085 | lapatinib 0.06 | pictilisib 0.114

SEC24A (UniProt O95486)
inactive: [1] 0.029 | filanesib -0.083 | zotarolimus 0.033 | idasanutlin -0.087 | alisertib -0.002 | [2] -0.004 | gefitinib -0.028 | [3] -0.016 | lapatinib -0.021 | pictilisib -0.077

SARG (UniProt Q9BW04)
inactive: [1] -0.017 | filanesib -0.062 | zotarolimus -0.045 | idasanutlin -0.005 | alisertib 0.035 | [2] 0.029 | gefitinib -0.03 | [3] 0.04 | lapatinib -0.015 | pictilisib -0.012

SEC16A isoform 5 (UniProt O15027)
inactive: [1] 0.079 | filanesib 0.037 | zotarolimus -0.01 | idasanutlin -0.021 | alisertib 0 | [2] 0.007 | gefitinib 0.046 | [3] -0.148 | lapatinib 0.017 | pictilisib -0.003

5 successive entries already listed, for reference:
RUFY1 (UniProt Q96T51)
inactive: [1] -0.015 | filanesib 0.005 | zotarolimus 0.056 | idasanutlin -0.049 | alisertib 0.047 | [2] 0.02 | gefitinib -0.004 | [3] -0.053 | lapatinib -0.035 | pictilisib -0.009

RTCB (UniProt Q9Y3I0)
inactive: [1] -0.063 | filanesib 0.042 | zotarolimus 0.006 | idasanutlin 0.032 | alisertib -0.023 | [2] -0.03 | gefitinib -0.005 | [3] -0.047 | lapatinib 0.061 | pictilisib 0.008

RRP9 (UniProt O43818)
inactive: [1] -0.011 | filanesib 0.143 | zotarolimus -0.059 | idasanutlin 0.171 | alisertib -0.14 | [2] -0.061 | gefitinib 0.027 | [3] 0.047 | lapatinib 0.037 | pictilisib -0.04

SCIN (UniProt Q9Y6U3)
inactive: [1] 0.002 | filanesib 0.027 | zotarolimus 0.021 | idasanutlin 0.011 | alisertib -0.121 | [2] -0.038 | gefitinib -0.149 | [3] -0.085 | lapatinib 0.06 | pictilisib 0.114

SEC24A (UniProt O95486)
inactive: [1] 0.029 | filanesib -0.083 | zotarolimus 0.033 | idasanutlin -0.087 | alisertib -0.002 | [2] -0.004 | gefitinib -0.028 | [3] -0.016 | lapatinib -0.021 | pictilisib -0.077

Following part

RUFY3 isoform 3 (UniProt Q7L099)
inactive: [1] -0.06 | filanesib 0.053 | zotarolimus 0.003 | idasanutlin -0.108 | alisertib 0.155 | [2] 0.045 | gefitinib 0.08 | [3] -0.122 | lapatinib -0.01 | pictilisib 0.018

RWDD1 (UniProt Q9H446)
inactive: [1] 0.029 | filanesib -0.035 | zotarolimus 0.026 | idasanutlin -0.048 | alisertib -0.021 | [2] -0.039 | gefitinib 0.024 | [3] 0.012 | lapatinib 0.117 | pictilisib -0.018

SCRN2 (UniProt Q96FV2)
inactive: [1] 0.034 | filanesib -0.087 | zotarolimus -0.291 | idasanutlin -0.109 | alisertib 0.051 | [2] -0.12 | gefitinib 0.015 | [3] -0.021 | lapatinib -0.076 | pictilisib -0.058

SDHA (UniProt P31040)
inactive: [1] 0.085 | filanesib -0.093 | zotarolimus -0.033 | idasanutlin -0.007 | alisertib -0.057 | [2] -0.054 | gefitinib 0 | [3] -0.011 | lapatinib -0.005 | pictilisib -0.01

SDHB (UniProt P21912)
inactive: [1] 0.013 | filanesib -0.051 | zotarolimus 0.011 | idasanutlin 0.074 | alisertib -0.126 | [2] -0.047 | gefitinib 0.014 | [3] 0.004 | lapatinib -0.004 | pictilisib 0.058

SAP30 (UniProt O75446)
inactive: [1] 0.089 | filanesib 0.044 | zotarolimus 0.047 | idasanutlin 0.024 | alisertib -0.015 | [2] -0.059 | gefitinib 0.003 | [3] -0.095 | lapatinib -0.035 | pictilisib -0.068

RSPRY1 (UniProt Q96DX4)
inactive: [1] -0.065 | filanesib 0.01 | zotarolimus -0.01 | idasanutlin -0.061 | alisertib -0.051 | [2] -0.006 | gefitinib 0.048 | [3] 0.031 | lapatinib 0.046 | pictilisib 0.054

SARNP (UniProt P82979)
inactive: [1] -0.128 | filanesib 0.044 | zotarolimus -0.038 | idasanutlin 0.066 | alisertib -0.065 | [2] 0.04 | gefitinib -0.012 | [3] 0.083 | lapatinib -0.079 | pictilisib 0.057

RTCA (UniProt O00442)
inactive: [1] 0.004 | filanesib -0.043 | zotarolimus -0.001 | idasanutlin -0.036 | alisertib -0.09 | [2] 0.025 | gefitinib 0.011 | [3] 0.01 | lapatinib 0.005 | pictilisib 0.036

SCAF8 isoform 2 (UniProt Q9UPN6)
inactive: [1] 0.026 | filanesib 0.002 | zotarolimus 0.022 | idasanutlin -0.003 | alisertib -0.027 | [2] 0.048 | gefitinib 0.058 | [3] 0.015 | lapatinib -0.007 | pictilisib -0.055

SAP30BP (UniProt Q9UHR5)
inactive: [1] 0.018 | filanesib -0.009 | zotarolimus -0.018 | idasanutlin 0.039 | alisertib -0.04 | [2] 0.018 | gefitinib 0.013 | [3] 0.02 | lapatinib -0.006 | pictilisib -0.122

SART3, A0A499FI31
inactive: [1] 0.059 | filanesib -0.036 | zotarolimus 0.054 | idasanutlin -0.044 | alisertib -0.042 | [2] -0.192 | gefitinib -0.019 | [3] -0.019 | lapatinib 0.016 | pictilisib -0.083

SEC31A (UniProt O94979)
inactive: [1] 0.01 | filanesib 0.063 | zotarolimus 0.029 | idasanutlin -0.039 | alisertib 0.006 | [2] 0.211 | gefitinib 0.008 | [3] -0.01 | lapatinib -0.036 | pictilisib -0.002

RYBP (UniProt Q8N488)
inactive: [1] -0.066 | filanesib -0.01 | zotarolimus -0.002 | idasanutlin 0.148 | alisertib -0.048 | [2] -0.11 | gefitinib 0.089 | [3] 0.003 | lapatinib 0.033 | pictilisib -0.025

SASS6 (UniProt Q6UVJ0)
inactive: [1] 0.067 | filanesib 0.035 | zotarolimus 0.087 | idasanutlin -0.059 | alisertib 0.067 | [2] 0.107 | gefitinib 0.051 | [3] -0.359 | lapatinib 0 | pictilisib 0.053

RTF2 (UniProt Q9BY42)
inactive: [1] -0.021 | filanesib 0.09 | zotarolimus 0.03 | idasanutlin 0.066 | alisertib 0.024 | [2] 0.036 | gefitinib 0.049 | [3] 0 | lapatinib 0.026 | pictilisib -0.027

SEC11C (UniProt Q9BY50)
inactive: [1] -0.034 | filanesib -0.083 | zotarolimus -0.001 | idasanutlin -0.119 | alisertib -0.028 | [2] 0.056 | gefitinib -0.048 | [3] 0 | lapatinib -0.019 | pictilisib -0.002

SART1 (UniProt O43290)
inactive: [1] 0.075 | filanesib 0.44 | zotarolimus 0.002 | idasanutlin 0.193 | alisertib -0.079 | [2] -0.096 | gefitinib -0.078 | [3] -0.156 | lapatinib 0.146 | pictilisib -0.19

SDHAF2 (UniProt Q9NX18)
inactive: [1] 0.063 | filanesib -0.03 | zotarolimus 0.068 | idasanutlin -0.085 | alisertib 0.02 | [2] -0.163 | gefitinib 0.09 | [3] 0.102 | lapatinib -0.013 | pictilisib 0.091
